Measured values reported in the supplement of paper PMC12823440, “Inhibitors supercharge kinase turnover through native proteolytic circuits” (Nature, 2025).
Structures can show the parent of a compound that is named as a salt. The list shows a part of the results. The calls rarely recur for the same compound in another form.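 Kinases were expressed as nanoluciferase fusions in K562 cells and luminescence was read every 4 h between 2 and 18 h as percent of control, DMSO set to 100% and a positive control to 0%. A time point counts as decreased when the signal drops significantly (2 sigma). The hit call is the authors' own, does not follow from the count of time points alone, and its rule is not shown.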

Sequences of proteins named here, by UniProt entry; tags and fusion partners are left off. A change or cut given only in a name is not applied to a line headed by its entry.
UniProt Q14289, whole entry, looked up: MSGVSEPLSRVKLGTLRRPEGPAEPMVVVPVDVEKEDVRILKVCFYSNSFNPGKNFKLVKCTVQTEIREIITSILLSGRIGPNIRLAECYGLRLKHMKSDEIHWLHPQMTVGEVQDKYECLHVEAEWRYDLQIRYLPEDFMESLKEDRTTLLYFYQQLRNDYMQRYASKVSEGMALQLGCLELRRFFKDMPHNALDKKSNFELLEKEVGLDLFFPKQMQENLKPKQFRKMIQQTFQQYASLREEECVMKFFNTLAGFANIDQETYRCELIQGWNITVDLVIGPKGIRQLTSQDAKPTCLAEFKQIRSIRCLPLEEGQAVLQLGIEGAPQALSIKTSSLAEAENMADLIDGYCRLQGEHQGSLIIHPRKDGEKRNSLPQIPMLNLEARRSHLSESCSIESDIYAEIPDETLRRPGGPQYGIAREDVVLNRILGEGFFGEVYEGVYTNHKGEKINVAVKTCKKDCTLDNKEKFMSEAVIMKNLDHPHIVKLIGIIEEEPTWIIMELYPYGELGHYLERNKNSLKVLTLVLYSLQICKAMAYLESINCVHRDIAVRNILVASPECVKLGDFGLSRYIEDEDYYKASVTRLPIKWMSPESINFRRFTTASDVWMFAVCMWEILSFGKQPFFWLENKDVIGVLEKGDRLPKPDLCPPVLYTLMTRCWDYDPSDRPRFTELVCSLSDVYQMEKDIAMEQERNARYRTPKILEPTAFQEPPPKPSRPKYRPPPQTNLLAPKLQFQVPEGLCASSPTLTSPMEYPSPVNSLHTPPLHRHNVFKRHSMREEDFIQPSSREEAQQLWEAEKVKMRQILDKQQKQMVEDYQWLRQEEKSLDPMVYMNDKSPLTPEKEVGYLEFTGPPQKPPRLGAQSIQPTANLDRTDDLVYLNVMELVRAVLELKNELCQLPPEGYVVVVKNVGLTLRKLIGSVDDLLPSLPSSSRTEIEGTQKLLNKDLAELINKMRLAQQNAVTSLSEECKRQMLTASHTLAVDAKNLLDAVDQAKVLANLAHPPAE
UniProt Q9BRS2: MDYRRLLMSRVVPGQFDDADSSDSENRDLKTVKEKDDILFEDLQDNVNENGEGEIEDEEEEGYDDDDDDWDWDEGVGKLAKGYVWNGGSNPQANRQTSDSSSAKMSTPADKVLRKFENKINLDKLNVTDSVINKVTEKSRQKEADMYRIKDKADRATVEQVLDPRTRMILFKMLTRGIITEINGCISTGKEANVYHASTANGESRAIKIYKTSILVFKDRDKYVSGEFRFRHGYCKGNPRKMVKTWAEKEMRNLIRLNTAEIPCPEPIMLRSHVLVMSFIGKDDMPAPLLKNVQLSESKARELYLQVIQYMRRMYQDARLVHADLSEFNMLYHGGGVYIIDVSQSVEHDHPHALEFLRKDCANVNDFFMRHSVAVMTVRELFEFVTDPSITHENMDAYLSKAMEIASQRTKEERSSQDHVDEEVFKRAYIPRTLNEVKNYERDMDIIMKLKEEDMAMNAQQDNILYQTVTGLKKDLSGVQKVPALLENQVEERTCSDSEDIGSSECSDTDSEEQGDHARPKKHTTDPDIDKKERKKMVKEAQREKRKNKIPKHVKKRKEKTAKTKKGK
UniProt Q13546: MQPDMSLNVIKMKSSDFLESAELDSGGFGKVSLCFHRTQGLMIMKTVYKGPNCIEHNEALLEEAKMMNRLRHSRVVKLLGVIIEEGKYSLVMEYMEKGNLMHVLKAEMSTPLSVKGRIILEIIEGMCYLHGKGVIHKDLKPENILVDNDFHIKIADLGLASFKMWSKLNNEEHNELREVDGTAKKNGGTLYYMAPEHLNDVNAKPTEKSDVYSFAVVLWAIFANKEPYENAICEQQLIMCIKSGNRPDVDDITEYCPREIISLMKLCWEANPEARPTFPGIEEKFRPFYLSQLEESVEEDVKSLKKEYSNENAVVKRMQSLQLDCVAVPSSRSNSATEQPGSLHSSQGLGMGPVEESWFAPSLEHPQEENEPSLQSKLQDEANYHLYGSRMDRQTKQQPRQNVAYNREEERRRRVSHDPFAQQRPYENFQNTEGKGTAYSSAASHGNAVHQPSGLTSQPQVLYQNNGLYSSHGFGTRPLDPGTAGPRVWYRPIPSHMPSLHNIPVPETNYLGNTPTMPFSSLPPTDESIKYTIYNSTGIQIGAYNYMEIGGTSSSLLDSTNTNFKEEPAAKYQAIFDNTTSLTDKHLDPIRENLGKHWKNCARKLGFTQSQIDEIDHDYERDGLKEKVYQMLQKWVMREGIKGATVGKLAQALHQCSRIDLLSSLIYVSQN
UniProt Q01974, whole entry: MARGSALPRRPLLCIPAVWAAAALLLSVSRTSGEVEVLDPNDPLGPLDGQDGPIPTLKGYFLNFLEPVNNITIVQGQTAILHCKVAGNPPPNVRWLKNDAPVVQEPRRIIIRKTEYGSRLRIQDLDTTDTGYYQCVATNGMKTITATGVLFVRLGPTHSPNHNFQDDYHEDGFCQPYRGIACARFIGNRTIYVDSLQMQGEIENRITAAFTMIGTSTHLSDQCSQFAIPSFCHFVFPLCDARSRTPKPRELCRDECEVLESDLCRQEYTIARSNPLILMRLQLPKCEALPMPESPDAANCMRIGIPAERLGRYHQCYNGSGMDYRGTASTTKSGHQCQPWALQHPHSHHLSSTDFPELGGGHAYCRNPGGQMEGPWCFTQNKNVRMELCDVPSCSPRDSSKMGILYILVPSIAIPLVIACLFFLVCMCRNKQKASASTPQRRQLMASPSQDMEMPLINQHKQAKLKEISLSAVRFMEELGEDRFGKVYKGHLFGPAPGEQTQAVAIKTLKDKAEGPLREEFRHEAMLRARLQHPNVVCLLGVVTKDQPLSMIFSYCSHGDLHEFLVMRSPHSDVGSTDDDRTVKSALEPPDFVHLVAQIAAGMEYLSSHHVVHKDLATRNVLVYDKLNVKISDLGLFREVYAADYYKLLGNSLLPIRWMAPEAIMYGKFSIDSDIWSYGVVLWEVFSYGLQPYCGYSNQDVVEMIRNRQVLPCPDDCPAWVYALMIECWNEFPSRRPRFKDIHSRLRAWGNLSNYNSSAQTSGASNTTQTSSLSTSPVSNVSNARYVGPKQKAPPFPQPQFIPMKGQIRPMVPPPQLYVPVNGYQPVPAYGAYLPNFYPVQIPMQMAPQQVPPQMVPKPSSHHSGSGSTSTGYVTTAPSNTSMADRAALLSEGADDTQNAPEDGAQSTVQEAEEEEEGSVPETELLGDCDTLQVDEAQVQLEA
UniProt Q9NYA1, whole entry: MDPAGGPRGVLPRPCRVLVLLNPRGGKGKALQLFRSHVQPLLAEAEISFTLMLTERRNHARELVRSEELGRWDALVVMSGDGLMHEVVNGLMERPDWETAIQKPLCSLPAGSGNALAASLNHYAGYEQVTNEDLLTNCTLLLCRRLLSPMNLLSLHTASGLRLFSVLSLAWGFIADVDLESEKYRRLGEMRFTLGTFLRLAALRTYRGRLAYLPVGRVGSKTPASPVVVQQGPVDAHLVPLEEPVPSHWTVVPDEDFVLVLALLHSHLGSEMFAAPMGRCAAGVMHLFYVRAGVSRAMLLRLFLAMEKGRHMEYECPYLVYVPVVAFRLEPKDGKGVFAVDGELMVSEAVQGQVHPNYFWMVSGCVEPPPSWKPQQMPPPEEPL
UniProt Q9Y6E0: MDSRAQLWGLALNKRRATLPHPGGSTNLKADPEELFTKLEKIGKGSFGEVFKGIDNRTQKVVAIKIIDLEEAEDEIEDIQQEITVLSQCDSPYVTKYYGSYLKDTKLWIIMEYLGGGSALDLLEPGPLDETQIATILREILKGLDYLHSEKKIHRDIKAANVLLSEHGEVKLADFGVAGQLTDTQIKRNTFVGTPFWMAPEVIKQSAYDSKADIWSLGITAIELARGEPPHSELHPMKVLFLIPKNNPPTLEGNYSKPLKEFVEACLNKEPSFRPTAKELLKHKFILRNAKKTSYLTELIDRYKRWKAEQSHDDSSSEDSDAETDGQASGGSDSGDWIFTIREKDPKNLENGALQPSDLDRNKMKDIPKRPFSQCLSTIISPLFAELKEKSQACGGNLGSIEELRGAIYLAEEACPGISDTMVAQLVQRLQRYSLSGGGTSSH
UniProt Q15208: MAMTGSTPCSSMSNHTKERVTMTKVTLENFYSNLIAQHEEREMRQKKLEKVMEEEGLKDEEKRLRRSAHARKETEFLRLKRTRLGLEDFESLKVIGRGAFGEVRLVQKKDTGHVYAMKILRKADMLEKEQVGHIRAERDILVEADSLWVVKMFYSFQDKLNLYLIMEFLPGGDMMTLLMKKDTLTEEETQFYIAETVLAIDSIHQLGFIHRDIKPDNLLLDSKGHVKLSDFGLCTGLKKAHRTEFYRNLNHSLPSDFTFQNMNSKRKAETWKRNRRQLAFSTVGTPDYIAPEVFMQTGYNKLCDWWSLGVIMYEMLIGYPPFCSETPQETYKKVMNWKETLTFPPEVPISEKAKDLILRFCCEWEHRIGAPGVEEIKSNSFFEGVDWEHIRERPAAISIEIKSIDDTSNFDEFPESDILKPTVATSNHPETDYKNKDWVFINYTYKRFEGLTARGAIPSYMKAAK
UniProt P42680: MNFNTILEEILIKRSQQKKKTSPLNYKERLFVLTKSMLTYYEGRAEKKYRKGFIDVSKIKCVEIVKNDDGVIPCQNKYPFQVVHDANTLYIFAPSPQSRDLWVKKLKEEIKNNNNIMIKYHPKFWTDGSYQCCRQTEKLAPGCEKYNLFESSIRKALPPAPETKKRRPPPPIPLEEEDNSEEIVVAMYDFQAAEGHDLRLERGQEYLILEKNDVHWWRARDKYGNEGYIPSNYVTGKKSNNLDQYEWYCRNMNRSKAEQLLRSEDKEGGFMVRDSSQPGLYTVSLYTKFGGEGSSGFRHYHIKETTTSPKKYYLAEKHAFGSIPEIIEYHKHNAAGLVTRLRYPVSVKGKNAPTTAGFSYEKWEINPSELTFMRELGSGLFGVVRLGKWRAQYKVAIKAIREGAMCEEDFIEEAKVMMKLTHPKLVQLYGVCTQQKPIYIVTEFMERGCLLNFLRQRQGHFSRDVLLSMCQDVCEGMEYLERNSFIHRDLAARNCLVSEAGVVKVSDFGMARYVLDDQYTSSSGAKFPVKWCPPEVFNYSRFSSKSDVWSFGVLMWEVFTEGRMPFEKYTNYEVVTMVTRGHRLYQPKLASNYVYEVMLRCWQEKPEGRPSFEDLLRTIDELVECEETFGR
UniProt Q6PHR2: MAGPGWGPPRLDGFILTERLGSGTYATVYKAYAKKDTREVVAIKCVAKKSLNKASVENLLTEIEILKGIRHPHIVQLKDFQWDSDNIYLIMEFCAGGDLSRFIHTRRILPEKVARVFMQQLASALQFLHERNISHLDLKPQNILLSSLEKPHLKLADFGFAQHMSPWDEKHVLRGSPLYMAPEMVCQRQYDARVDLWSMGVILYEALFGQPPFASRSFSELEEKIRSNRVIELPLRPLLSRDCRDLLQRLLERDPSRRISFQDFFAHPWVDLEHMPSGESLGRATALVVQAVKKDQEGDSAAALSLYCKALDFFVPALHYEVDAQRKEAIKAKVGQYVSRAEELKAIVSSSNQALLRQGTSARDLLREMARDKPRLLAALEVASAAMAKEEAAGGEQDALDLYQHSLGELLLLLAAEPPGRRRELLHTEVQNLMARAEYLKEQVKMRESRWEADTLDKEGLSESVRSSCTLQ

What was measured:
Assay in all cases: number of time points (of 5) at which kinase-Nluc abundance scored as decreased, DMSO-normalised (count); higher = more persistent destabilization
Conditions in all cases: K562; 2-18 h
[1] = molecular target: PRKCA (UniProt P17252)
[2] = molecular target: PTK2 (UniProt Q05397)
[3] = molecular target: PTK2B (UniProt Q14289)
[4] = molecular target: RAF1 (UniProt P04049)
[5] = molecular target: RAF1_S257L (clone: RAF1_mut) (UniProt P04049)
[6] = molecular target: RET (UniProt P07949)
[7] = molecular target: RET_M918T (clone: RET_mut) (UniProt P07949)
[8] = molecular target: RIOK1 (UniProt Q9BRS2)
[9] = molecular target: RIPK1 (UniProt Q13546)
[10] = molecular target: RIPK2 (UniProt O43353)
[11] = molecular target: ROR2 (UniProt Q01974)
[12] = molecular target: RPS6KA1 (UniProt Q15418)
[13] = molecular target: SPHK1 (UniProt Q9NYA1)
[14] = molecular target: SRC (UniProt P12931)
[15] = molecular target: STK24 (UniProt Q9Y6E0)
[16] = molecular target: STK38 (UniProt Q15208)
[17] = molecular target: SYK (UniProt P43405)
[18] = molecular target: TEC (UniProt P42680)
[19] = molecular target: TYK2 (UniProt P29597)
[20] = molecular target: ULK3 (UniProt Q6PHR2)

Measured: number of time points

CC(=NNC(=O)c1ccc(C)c(Br)c1)c1ccc(O)cc1O [mTOR inhibitor-1] (2.5 µM)
0: [1] | [2] | [3] | [4] | [5] | [6] | [7] | [8] | [9] | [10] | [11] | [12] | [13] | [14] | [15] | [16] | [17] | [20]
1: [18] | [19]

OCCNC1CCCc2c1[nH]c1ccc(-c3ccccc3)cc21 (stereo not given) (2.5 µM)
2: [13]
0: [1] | [2] | [3] | [5] | [6] | [7] | [8] | [9] | [10] | [11] | [12] | [14] | [15] | [16] | [17] | [18]
1: [4] | [19] | [20]

CN(CC(=O)N(Cc1ccc(C2CCCCC2)cc1)c1ccc(C(=O)O)cc1)S(=O)(=O)c1c(F)c(F)c(F)c(F)c1F (2.5 µM)
5: [4]
0: [1] | [2] | [3] | [5] | [6] | [7] | [8] | [9] | [10] | [11] | [12] | [13] | [14] | [15] | [16] | [17] | [18] | [19] | [20]

Nc1nccc(Oc2ccc(NC(=O)c3cn(COP(=O)(O)O)cc(-c4ccc(F)cc4)c3=O)cc2F)c1Cl (10 µM)
2: [5] | [8]
1: [20]
3: [10]
0: [1] | [2] | [3] | [4] | [6] | [7] | [9] | [11] | [12] | [13] | [14] | [15] | [16] | [17] | [18] | [19]

NC1(Cc2ccc(Cl)cc2)CCN(c2ncnc3[nH]ccc23)CC1 (10 µM)
0: [1] | [2] | [3] | [4] | [5] | [6] | [7] | [8] | [9] | [10] | [11] | [12] | [13] | [14] | [15] | [16] | [17] | [18] | [19] | [20]

Fc1ccc(-c2nc(-c3ccccc3F)[nH]c2-c2ccncc2)cc1 (2.5 µM)
0: [1] | [2] | [3] | [4] | [5] | [6] | [7] | [8] | [9] | [10] | [11] | [12] | [13] | [14] | [15] | [16] | [17] | [18] | [19] | [20]

COc1ccc(C(=O)Nc2sc3c(c2C(N)=O)CCCC3)cc1OC (10 µM)
0: [1] | [2] | [3] | [4] | [5] | [6] | [7] | [8] | [9] | [10] | [11] | [12] | [13] | [14] | [15] | [16] | [17] | [18] | [19] | [20]

Cc1cc(Nc2cc(Cl)nc(Oc3ccc([N+](=O)[O-])cc3)n2)n[nH]1 [Autophinib] (2.5 µM)
0: [1] | [2] | [3] | [4] | [5] | [6] | [7] | [8] | [9] | [10] | [11] | [12] | [13] | [14] | [15] | [16] | [17] | [18] | [19] | [20]

COc1cc(C(N)=O)nc(-c2cccc(C#C[C@]3(O)CCN(C)C3=O)c2)c1 (10 µM)
0: [1] | [2] | [3] | [4] | [5] | [6] | [7] | [8] | [9] | [10] | [11] | [12] | [13] | [14] | [15] | [16] | [17] | [18] | [19] | [20]

Nc1ncnc2c1ncn2[C@@H]1O[C@H](CO)C[C@H]1O [Cordycepin] (10 µM)
0: [1] | [2] | [3] | [4] | [5] | [6] | [7] | [8] | [9] | [10] | [11] | [12] | [13] | [14] | [15] | [16] | [17] | [18] | [19] | [20]

OC(COc1ccc(C(F)(F)F)cc1)CN(Cc1ccccc1)Cc1ccccc1 (stereo not given) (2.5 µM)
0: [1] | [2] | [3] | [4] | [5] | [6] | [7] | [8] | [9] | [10] | [11] | [12] | [13] | [14] | [15] | [16] | [17] | [18] | [19] | [20]

CNc1nc(Nc2cnn(C3CCN(C4COC4)CC3F)c2Cl)ncc1C(F)(F)F (stereo not given) (10 µM)
0: [1] | [2] | [3] | [4] | [5] | [6] | [7] | [8] | [9] | [10] | [11] | [12] | [13] | [14] | [15] | [16] | [17] | [18] | [19] | [20]

COCCOc1cnc(Sc2cc(C)c(-c3csc(NC(=O)c4ccncc4)n3)c(C)c2)cn1 [T-1101 (tosylate)] (2.5 µM)
0: [1] | [2] | [3] | [4] | [5] | [6] | [8] | [9] | [10] | [11] | [12] | [13] | [14] | [15] | [16] | [17] | [18] | [19] | [20]
2: [7]

COC1(C(=O)N2Cc3nc(Cl)nc(N[C@H](C)c4cc(N)cc(C(F)(F)F)c4)c3C2)CCOCC1 (10 µM)
0: [1] | [2] | [3] | [4] | [5] | [6] | [7] | [8] | [9] | [10] | [11] | [12] | [13] | [14] | [15] | [16] | [17] | [18] | [19] | [20]

O=c1oc2cc(O)ccc2c2ccccc12 [Urolithin B] (10 µM)
0: [1] | [2] | [3] | [4] | [5] | [6] | [7] | [8] | [9] | [10] | [11] | [12] | [13] | [14] | [15] | [16] | [17] | [18] | [19] | [20]

CN1CCN(c2ccc(Nc3ncc4nc(Nc5ccccc5)n([C@@H]5CCN(S(=O)(=O)C6CC6)C5)c4n3)cc2)CC1 (2.5 µM)
0: [1] | [2] | [3] | [4] | [5] | [6] | [7] | [8] | [9] | [10] | [11] | [12] | [13] | [14] | [15] | [16] | [17] | [18] | [19] | [20]

Fc1ccc(-c2nc(-c3c(F)cccc3F)[nH]c2-c2ccncc2)cc1 (10 µM)
0: [1] | [2] | [3] | [4] | [5] | [6] | [7] | [8] | [9] | [10] | [11] | [12] | [13] | [14] | [15] | [16] | [17] | [18] | [19] | [20]

As a working copy, two of the compounds above.
COC1(C(=O)N2Cc3nc(Cl)nc(N[C@H](C)c4cc(N)cc(C(F)(F)F)c4)c3C2)CCOCC1 (10 µM)
0: [1] | [2] | [3] | [4] | [5] | [6] | [7] | [8] | [9] | [10] | [11] | [12] | [13] | [14] | [15] | [16] | [17] | [18] | [19] | [20]

O=c1oc2cc(O)ccc2c2ccccc12 [Urolithin B] (10 µM)
0: [1] | [2] | [3] | [4] | [5] | [6] | [7] | [8] | [9] | [10] | [11] | [12] | [13] | [14] | [15] | [16] | [17] | [18] | [19] | [20]

Later entries.

O=C(Nc1ccc2[nH]nc(-c3ccncc3)c2c1)[C@@H]1CCN(CC(=O)N2CCN(c3ccc(-c4ncccn4)cc3)CC2)C1 (2.5 µM)
0: [1] | [2] | [3] | [4] | [5] | [6] | [7] | [8] | [9] | [10] | [11] | [12] | [13] | [14] | [15] | [16] | [17] | [18] | [19] | [20]

C#CCN(C)C(=O)CCNc1nc(N2CCN(C(=O)C=C)CC2)c2cc(Cl)c(-c3c(O)cccc3F)c(F)c2n1 [ARS-1323-alkyne] (2.5 µM)
0: [1] | [2] | [3] | [4] | [5] | [6] | [7] | [8] | [9] | [10] | [11] | [12] | [13] | [14] | [15] | [16] | [17] | [18] | [19] | [20]

CCN(CC)c1ccc2cc(C(=O)N3CCN(C(=O)C4=Cc5c(Br)cccc5S4(=O)=O)CC3)c(=O)oc2c1 (2 µM)
0: [1] | [2] | [3] | [4] | [5] | [6] | [7] | [8] | [9] | [10] | [11] | [12] | [13] | [14] | [15] | [16] | [17] | [18] | [20]
1: [19]

O=C1NC(=O)/C(=C/c2ccc3c(c2)OC(F)(F)O3)S1 (10 µM)
0: [1] | [2] | [3] | [4] | [5] | [6] | [7] | [8] | [9] | [10] | [11] | [12] | [13] | [14] | [15] | [16] | [17] | [18] | [19] | [20]

C[C@@H]1C(=O)O[C@H](C)[C@H]1C[C@@H](O)[C@](C)(O)[C@H]1CC[C@@]2(O)C3=CC(=O)[C@@H]4C[C@@H](O)[C@@H](O)C[C@]4(C)[C@H]3CC[C@]12C [Cyasterone] (10 µM)
0: [1] | [2] | [3] | [4] | [5] | [6] | [7] | [8] | [9] | [10] | [11] | [12] | [13] | [14] | [15] | [16] | [17] | [18] | [19] | [20]

C=C(CCC=C(C)C)[C@H]1CC[C@]2(C)[C@@H]1[C@H](O)C[C@@H]1[C@@]3(C)CC[C@H](O[C@@H]4O[C@H](CO)[C@@H](O)[C@H](O)[C@H]4O[C@@H]4O[C@H](CO)[C@@H](O)[C@H](O)[C@H]4O)C(C)(C)[C@@H]3CC[C@]12C [Ginsenoside Rk1] (10 µM)
0: [1] | [2] | [3] | [4] | [5] | [6] | [7] | [8] | [9] | [10] | [11] | [12] | [13] | [14] | [15] | [16] | [17] | [18] | [19] | [20]

CCc1cc(O)c(F)cc1-c1ccc2c(-c3nc4c([nH]3)CN(C3CCN(C)CC3)CC4)n[nH]c2c1 [JAK-IN-5 (hydrochloride)] (2 µM)
4: [5]
2: [2]
1: [4] | [20]
0: [1] | [3] | [6] | [7] | [8] | [11] | [12] | [13] | [14] | [15] | [16] | [17] | [18]
3: [9] | [10] | [19]
